Data as given in the supplement of paper PMC10849652.
Some of the results follow.

By UniProt entry, the sequences of proteins in these tests, tags left out. Where a name states a change or a piece, a line headed by the entry shows the natural chain unless it says otherwise.
UniProt Q9NX18: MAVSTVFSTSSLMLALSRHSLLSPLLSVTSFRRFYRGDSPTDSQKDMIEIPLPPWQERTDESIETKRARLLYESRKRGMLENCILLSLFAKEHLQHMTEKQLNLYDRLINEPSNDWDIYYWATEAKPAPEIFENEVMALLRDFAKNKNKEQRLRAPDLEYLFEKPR
UniProt O14521: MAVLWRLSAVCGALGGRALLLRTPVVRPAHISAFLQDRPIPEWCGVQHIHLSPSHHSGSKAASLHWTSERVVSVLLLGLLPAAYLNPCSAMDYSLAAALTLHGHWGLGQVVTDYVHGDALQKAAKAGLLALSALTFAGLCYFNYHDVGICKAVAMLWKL
UniProt Q8IZE3: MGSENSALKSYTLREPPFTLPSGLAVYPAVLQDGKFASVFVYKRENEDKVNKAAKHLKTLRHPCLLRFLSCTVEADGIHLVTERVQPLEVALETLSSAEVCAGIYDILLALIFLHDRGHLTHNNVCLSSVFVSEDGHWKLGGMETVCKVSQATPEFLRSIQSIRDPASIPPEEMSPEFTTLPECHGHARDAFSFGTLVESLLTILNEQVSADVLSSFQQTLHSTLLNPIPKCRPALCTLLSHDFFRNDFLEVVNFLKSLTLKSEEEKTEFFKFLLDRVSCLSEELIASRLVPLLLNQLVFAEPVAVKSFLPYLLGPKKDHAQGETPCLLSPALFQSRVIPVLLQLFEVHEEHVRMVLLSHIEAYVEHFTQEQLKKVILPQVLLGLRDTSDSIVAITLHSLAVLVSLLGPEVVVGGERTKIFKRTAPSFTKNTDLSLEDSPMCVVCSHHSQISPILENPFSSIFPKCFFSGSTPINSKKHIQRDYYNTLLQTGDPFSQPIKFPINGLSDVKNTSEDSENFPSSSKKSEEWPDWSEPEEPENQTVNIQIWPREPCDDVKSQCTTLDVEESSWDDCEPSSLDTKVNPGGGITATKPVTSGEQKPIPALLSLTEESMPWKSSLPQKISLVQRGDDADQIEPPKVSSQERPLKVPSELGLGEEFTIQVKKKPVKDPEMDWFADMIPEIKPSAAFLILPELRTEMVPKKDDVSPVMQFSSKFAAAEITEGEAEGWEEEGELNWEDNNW
UniProt O15127: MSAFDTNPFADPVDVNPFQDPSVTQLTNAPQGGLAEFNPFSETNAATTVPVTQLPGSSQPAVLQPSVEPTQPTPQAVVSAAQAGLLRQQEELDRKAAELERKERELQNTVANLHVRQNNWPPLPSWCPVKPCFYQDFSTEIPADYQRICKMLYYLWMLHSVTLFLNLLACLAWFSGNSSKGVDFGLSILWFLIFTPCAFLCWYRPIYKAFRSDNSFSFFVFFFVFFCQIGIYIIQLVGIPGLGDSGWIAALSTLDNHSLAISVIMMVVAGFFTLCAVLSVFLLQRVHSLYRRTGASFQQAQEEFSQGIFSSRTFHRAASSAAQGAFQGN
UniProt Q9NRG7: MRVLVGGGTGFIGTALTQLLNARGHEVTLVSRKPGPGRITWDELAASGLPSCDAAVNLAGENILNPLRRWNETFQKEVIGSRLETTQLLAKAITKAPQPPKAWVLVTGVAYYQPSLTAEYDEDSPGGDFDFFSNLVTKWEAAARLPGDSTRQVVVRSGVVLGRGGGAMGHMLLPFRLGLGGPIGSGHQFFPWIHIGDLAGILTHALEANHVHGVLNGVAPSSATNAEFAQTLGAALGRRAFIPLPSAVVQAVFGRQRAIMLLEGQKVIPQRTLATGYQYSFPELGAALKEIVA
UniProt Q5VUM1: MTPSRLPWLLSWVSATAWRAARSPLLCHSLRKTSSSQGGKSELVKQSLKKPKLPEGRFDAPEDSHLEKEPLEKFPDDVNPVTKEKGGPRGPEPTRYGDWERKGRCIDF
UniProt Q7L4I2: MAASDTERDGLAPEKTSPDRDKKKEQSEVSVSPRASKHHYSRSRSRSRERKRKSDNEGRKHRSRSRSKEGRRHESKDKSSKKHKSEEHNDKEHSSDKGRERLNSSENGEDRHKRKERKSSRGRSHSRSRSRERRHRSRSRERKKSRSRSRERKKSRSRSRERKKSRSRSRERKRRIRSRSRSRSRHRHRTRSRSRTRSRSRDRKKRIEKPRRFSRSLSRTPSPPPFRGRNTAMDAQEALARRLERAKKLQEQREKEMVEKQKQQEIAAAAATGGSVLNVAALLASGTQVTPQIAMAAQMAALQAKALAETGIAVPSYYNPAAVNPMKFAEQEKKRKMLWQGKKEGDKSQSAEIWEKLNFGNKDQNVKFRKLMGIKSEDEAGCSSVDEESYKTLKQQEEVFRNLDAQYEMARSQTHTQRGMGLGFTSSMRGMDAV
UniProt Q8N9R8: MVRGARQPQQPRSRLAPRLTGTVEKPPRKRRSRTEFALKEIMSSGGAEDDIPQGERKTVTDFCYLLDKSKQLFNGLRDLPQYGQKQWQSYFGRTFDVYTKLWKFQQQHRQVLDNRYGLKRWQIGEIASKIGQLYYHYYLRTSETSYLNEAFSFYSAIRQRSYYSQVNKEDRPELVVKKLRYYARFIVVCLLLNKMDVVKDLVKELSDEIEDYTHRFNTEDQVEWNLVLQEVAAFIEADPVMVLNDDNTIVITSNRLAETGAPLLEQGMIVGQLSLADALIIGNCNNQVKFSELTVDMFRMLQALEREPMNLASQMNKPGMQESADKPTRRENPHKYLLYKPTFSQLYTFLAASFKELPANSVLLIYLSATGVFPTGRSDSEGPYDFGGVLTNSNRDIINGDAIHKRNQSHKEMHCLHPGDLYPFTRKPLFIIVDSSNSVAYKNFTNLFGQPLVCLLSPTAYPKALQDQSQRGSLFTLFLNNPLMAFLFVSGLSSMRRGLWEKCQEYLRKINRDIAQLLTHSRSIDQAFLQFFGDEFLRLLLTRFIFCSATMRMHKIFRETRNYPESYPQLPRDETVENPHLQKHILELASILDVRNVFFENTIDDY
UniProt Q01196, whole entry, looked up: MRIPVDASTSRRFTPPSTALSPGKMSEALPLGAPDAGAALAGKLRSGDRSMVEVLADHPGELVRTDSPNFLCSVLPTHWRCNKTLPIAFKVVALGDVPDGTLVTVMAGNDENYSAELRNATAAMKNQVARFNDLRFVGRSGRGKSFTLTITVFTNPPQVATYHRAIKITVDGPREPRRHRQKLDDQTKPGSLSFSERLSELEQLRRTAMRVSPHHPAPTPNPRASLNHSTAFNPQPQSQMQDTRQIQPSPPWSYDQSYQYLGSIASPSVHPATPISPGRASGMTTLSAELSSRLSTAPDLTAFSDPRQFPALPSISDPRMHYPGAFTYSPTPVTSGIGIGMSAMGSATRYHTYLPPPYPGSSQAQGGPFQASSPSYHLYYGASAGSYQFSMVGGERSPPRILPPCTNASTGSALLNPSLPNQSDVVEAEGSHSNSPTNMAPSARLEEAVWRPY
UniProt Q96T23: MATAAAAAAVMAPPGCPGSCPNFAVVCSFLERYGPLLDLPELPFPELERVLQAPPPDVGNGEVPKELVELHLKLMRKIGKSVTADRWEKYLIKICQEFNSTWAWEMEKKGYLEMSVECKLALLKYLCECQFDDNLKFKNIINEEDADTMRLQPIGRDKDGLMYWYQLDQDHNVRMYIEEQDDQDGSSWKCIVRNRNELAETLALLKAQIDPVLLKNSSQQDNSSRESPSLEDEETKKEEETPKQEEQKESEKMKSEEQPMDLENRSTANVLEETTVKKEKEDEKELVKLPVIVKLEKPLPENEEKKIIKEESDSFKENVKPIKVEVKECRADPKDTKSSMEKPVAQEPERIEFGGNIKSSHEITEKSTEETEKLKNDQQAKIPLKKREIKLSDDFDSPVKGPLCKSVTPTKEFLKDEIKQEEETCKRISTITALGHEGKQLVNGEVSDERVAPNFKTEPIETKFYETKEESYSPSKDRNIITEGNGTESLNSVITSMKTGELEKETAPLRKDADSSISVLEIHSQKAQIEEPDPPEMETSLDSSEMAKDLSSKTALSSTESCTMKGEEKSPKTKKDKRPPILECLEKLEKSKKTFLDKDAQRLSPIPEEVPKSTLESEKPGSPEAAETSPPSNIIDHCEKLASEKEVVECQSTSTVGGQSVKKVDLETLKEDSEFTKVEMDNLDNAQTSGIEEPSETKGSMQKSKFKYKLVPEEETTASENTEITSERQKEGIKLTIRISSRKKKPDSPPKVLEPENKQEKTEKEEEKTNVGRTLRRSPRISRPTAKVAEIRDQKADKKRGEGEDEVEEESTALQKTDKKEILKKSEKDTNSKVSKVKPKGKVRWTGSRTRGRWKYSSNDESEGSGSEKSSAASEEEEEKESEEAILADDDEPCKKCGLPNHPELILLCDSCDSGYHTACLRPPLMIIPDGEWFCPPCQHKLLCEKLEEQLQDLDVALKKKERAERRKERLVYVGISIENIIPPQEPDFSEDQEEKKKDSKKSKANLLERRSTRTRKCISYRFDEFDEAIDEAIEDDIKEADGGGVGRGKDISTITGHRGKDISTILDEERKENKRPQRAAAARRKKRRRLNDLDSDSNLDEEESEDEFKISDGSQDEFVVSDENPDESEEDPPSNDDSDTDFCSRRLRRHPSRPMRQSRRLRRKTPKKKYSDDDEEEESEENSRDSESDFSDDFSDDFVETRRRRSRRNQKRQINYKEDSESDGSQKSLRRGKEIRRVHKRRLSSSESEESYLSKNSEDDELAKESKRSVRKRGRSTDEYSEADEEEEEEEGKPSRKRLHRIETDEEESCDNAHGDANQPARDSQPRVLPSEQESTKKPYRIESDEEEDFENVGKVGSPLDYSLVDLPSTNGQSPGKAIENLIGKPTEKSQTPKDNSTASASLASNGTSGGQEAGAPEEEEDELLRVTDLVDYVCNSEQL
UniProt Q5PRF9: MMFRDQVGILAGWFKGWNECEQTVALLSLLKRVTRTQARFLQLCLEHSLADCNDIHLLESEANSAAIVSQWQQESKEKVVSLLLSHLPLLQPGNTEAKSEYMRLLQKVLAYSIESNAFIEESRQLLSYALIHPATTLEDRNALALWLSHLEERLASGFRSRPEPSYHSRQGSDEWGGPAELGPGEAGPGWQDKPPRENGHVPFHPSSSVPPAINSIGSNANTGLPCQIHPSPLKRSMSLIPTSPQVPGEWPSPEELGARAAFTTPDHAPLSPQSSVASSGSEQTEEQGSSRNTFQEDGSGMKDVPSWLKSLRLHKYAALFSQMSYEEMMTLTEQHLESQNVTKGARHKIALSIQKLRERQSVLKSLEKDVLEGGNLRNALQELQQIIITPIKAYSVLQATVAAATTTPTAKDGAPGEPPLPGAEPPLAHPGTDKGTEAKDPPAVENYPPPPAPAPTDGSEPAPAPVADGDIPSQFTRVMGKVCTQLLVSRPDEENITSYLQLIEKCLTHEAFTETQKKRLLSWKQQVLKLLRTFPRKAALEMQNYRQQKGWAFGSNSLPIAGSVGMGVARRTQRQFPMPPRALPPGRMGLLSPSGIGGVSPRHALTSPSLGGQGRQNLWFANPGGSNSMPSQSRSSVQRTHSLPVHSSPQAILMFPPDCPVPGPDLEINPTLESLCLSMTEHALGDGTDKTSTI
UniProt O95104: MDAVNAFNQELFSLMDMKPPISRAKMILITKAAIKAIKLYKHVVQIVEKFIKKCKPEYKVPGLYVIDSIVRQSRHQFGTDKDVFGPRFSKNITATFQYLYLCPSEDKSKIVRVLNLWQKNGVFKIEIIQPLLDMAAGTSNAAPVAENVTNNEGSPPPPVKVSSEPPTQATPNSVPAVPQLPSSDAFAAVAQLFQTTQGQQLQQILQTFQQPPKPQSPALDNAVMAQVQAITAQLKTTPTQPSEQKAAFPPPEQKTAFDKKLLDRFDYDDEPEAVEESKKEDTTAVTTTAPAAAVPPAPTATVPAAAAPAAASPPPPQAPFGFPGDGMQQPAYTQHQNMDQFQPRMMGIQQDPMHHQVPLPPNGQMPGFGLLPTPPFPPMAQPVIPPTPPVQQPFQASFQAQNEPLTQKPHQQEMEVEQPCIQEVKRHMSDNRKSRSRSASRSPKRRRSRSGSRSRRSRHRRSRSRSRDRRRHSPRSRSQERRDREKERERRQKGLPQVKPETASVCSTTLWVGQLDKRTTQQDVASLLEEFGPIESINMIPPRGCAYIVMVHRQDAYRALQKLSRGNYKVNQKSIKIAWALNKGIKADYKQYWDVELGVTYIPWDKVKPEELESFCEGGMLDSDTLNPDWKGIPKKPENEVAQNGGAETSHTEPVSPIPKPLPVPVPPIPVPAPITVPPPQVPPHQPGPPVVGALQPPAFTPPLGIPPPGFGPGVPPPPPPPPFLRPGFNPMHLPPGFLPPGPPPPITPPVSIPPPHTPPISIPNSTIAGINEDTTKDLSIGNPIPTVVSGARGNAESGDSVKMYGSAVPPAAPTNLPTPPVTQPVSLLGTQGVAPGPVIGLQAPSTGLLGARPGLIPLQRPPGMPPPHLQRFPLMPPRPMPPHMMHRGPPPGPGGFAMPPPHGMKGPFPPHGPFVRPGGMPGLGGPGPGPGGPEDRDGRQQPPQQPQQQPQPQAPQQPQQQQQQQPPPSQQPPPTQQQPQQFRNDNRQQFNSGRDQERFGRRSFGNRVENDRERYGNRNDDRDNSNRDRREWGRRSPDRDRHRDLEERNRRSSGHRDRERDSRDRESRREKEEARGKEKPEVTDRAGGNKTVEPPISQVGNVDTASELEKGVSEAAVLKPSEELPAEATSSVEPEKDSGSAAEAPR

Compound: CC(C)(C)Cn1c(N)nc2ccc(-c3[nH]c(C(C)(C)C)nc3-c3ccc(F)cc3)nc21 [ralimetinib]
Experiment: log2 fold change, soluble protein after heating vs DMSO (PISA); higher = thermal stabilisation; K562 cells, 10 uM, 30 min; active = over 0.2 and 3.5 SD of the protein, either way, in both replicates (recomputed)
How it was run: (§1)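 K562 cells (2×10^6 cells/mL) were treated with 10 μM compound for 30 min, and aliquots were heated for 3 min over 48°C-58°C. Pooled aliquots were extracted in PBS with 0.5% NP-40 at 4°C, and the supernatant after 21,000xg for 90 min was measured by TMTpro 16plex LC-MS/MS with channel sums equalised. Reported thermal stability, relative to control samples and from duplicates, is a log2 fold change.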

| Target | log2 fold change |
| --- | --- |
| SDHAF2 (UniProt Q9NX18) | inactive: -0.044 |
| RUFY3 isoform 3 (UniProt Q7L099) | inactive: 0.196 |
| RTN4 isoform 5 (UniProt Q9NQC3) | inactive: 0.007 |

Compound: CC(C)(O)CC(=O)NCCn1ccc2ncnc(Nc3ccc(Oc4cccc(C(F)(F)F)c4)c(Cl)c3)c21
Experiment: as above
How it was run: as §1

| Target | log2 fold change |
| --- | --- |
| RRP36 (UniProt Q96EU6) | inactive: 0 |
| SCAMP2 (UniProt H3BUB6) | inactive: 0.102 |
| SDHD (UniProt O14521) | inactive: -0.11 |
| SCG3 (UniProt Q8WXD2) | inactive: 0.039 |
| SCYL3 isoform 2 (UniProt Q8IZE3) | inactive: -0.063 |
| SCAMP2 (UniProt O15127) | inactive: 0.013 |
| SDR39U1 (UniProt Q9NRG7) | inactive: -0.001 |
| RTF2 (UniProt Q9BY42) | inactive: 0.032 |
| SDHAF4 (UniProt Q5VUM1) | inactive: 0.081 |
| RSRC2 (UniProt Q7L4I2) | inactive: -0.033 |
| SCAI isoform 2 (UniProt Q8N9R8) | inactive: -0.028 |
| SCGB1D2 (UniProt O95969) | inactive: -0.07 |
| RUNX1 isoform 8 (UniProt Q01196) | inactive: -0.138 |
| SACM1L (UniProt Q9NTJ5) | inactive: -0.007 |
| RSF1 (UniProt Q96T23) | inactive: -0.175 |
| SAMD4B (UniProt Q5PRF9) | inactive: 0.133 |
| SAP30 (UniProt O75446) | inactive: 0.151 |
| SDHB, A0A087WWT1 | inactive: 0.053 |
| SCAF4 (UniProt O95104) | inactive: -0.164 |
| RSPRY1 (UniProt Q96DX4) | inactive: -0.036 |

Two records picked at random from those above, as already listed:

| Target | log2 fold change |
| --- | --- |
| SCGB1D2 (UniProt O95969) | inactive: -0.07 |
| SAMD4B (UniProt Q5PRF9) | inactive: 0.133 |
